We go through one compound from PMC7259758 (PLoS ONE, 2020).

This assay deals with triple-exon skipping of MDM2 pre-mRNA in SK-MEL-2/Luc-MDM2 cells. Kind of assay: TESLR (Triple Exon Skipping Luciferase Reporter) dose response. The following applies: Homo sapiens, SK-MEL-2, 4 h, read-out: TESLR IC50 in inducing triple exon skipping. On the technique in general: A reporter such as luciferase makes a cellular process visible.

The structures appear in SMILES notation. Where only a bound is given, the exact number is not on record here.

Broadly, the IC50 is the concentration at which inhibition is half-maximal. Turning to `CCc1cnn2c(NCc3ccc[n+]([O-])c3)cc(N3CCCC[C@H]3CCO)nc12` [dinaciclib], the IC50 was above 10 µM.
